Results as given in PMC12361231.
These are yes or no findings as the source states them, for the method shown. In cells and extracts the contact can be indirect. Some binding calls cover weakened binding; strength is not graded here.

Protein sequences, listed by entry. Tags and fused reporters are not part of them.
UniProt P10415: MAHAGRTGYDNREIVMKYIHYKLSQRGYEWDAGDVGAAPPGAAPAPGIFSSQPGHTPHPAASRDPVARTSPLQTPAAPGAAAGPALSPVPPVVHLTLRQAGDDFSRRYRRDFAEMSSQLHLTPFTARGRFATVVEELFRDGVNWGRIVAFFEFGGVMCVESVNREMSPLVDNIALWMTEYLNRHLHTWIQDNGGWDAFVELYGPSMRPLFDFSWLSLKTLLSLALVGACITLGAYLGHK
UniProt Q14457: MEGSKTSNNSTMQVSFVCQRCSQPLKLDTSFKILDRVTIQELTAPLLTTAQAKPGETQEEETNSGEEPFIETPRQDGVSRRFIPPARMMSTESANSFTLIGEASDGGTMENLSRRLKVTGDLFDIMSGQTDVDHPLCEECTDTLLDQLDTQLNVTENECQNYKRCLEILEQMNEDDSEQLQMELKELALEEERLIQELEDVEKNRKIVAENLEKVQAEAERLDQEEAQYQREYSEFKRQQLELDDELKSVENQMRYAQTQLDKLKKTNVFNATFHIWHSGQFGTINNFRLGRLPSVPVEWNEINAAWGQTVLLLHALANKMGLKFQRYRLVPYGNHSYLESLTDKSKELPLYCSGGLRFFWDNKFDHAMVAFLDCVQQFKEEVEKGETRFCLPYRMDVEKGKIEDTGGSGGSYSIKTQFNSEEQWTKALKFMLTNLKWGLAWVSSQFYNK

Target: B-cell lymphoma-2 (human (endogenous in A498 and 786-O)) (UniProt P10415)
Assay: co-IP; lysates of A498 and 786-O cells (pc-NC or pc-BNIP3; normoxia or hypoxia, 1% O2); lysis buffer 50 mM Tris-HCl pH 7.5, 100 mM NaCl, 1% Triton X-100, 0.1 mM EDTA, 0.5 mM MgCl2, 10% glycerol; precipitated with Bcl-2 antibody and Protein-A/G Sepharose beads at 4°C; blots probed for Beclin1 and BNIP3

- binding: binds
Substance: Beclin1 (from UniProt Q14457 1-450)
